# Laboratory results as given in PubChem BioAssay AID588590 (National Center for Advancing Translational Sciences (NCATS), 2011).
# Sequences of proteins named here, by UniProt entry; tags and fusion partners are left off. A change or cut given only in a name is not applied to a line headed by its entry.
# UniProt Q9UNA4: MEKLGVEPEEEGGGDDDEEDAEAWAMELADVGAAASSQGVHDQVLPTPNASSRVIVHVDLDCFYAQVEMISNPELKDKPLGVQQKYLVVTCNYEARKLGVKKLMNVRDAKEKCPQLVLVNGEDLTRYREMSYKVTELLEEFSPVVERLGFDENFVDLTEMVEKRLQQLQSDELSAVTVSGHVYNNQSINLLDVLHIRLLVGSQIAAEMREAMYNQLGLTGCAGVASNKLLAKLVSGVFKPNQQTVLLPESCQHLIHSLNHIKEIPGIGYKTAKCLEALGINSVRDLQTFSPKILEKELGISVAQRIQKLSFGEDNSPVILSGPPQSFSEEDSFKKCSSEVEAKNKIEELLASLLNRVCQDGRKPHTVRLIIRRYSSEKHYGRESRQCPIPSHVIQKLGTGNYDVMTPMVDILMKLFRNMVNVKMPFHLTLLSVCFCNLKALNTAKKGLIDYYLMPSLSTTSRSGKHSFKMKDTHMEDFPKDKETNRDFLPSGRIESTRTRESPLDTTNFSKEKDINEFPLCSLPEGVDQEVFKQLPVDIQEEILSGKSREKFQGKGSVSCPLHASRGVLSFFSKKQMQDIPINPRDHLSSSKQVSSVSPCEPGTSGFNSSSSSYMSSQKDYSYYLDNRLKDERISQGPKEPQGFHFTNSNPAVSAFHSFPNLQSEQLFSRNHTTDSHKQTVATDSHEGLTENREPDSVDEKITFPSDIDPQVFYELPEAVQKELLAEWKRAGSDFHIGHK
# Hit rate of the full screen: of about 390,000 compounds, about 4,000 (1%) were called active. This list was built around the results that the source calls inconclusive (neither active nor inactive); the mix of calls is not that of the screen. Calls come from the whole dose curve; as a rule, active = well fitted inhibition curve with a large enough effect; inconclusive = small, poorly fitted or top-dose-only effect, or another doubt; inactive = no such curve, though single readings can be large or run the other way. Where the call is inconclusive, the potency comes from a doubtful curve fit.
# Target: DNA polymerase iota (Homo sapiens) (UniProt Q9UNA4)
# Test: qHTS for Inhibitors of Polymerase Iota
# Details: Pol iota fluorescent replication assay, 10 min; series mostly up to 115 µM
# Procedure, shortened: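 Pol iota at 10 nM preincubated 15 min with compounds at room temperature; reaction started with fluorescent substrate, 50 nM final. Fluorescence read kinetically at 0 and 10 min; buffer-only wells as negative control.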
# Potency is the fitted concentration of half-maximal effect.
row,Structure (SMILES),Potency
1,O=C(NCC(c1cccnc1)N1CCc2ccccc21)c1ccc(Cl)cc1 (stereo unspecified),inactive
2,O=C(O)C(Cc1c[nH]c2ccccc12)NS(=O)(=O)c1ccc2ccccc2c1 (stereo unspecified),"inconclusive: 79.4 µM [inhibitor, single point]"
3,COc1ccc(C(=O)c2c(C)c3cc(C)ccc3n2CC(O)CN2CCOCC2)cc1 (stereo unspecified),"inconclusive: 22.4 µM [inhibitor, partial curve, poor fit]"
4,CCOC(=O)C1CCCN(S(=O)(=O)c2ccc3c(c2)NC(=O)CO3)C1 (stereo unspecified),"inconclusive: 11.2 µM [inhibitor, partial curve, poor fit]"
5,Cc1c(NC(=O)c2ccc(-c3ccccc3)cc2)cccc1C(=O)O,"inconclusive: 89.1 µM [inhibitor, single point]"
6,CCc1cc(=O)oc2c3c(cc(OCC(=O)NCCCCCC(=O)O)c12)OC(C)(C)CC3,inactive
7,C#CCOCCOCCOCCNc1nc(N2CCN(C(=O)C(Cc3cc4ccccc4[nH]3)n3cc(C(N)Cc4ccc(O)cc4)nn3)CC2)nc(N2CCN(C(=O)C(Cc3cc4ccccc4[nH]3)n3cc(C(N)Cc4ccc(O)cc4)nn3)CC2)n1 (stereo unspecified),inactive
8,CCOC(=O)c1c(NC(=O)CSc2nnc(-c3cccnc3)o2)sc2c1CCC2,"inconclusive: 1.12 µM [inhibitor, partial curve, poor fit]"
9,CN(C)CCNc1ccc(CO)c2oc3ccc(O)cc3c(=O)c12,"inconclusive: 79.4 µM [inhibitor, partial curve]"
10,COc1cccc(C(=O)Nc2ccc3nc(SCCOc4ccccc4)sc3c2)c1,inactive
11,O=C(CCNS(=O)(=O)c1ccc2c(c1)CCN2C(=O)C1CC1)Nc1ccc(OC(F)(F)F)cc1,"inconclusive: 89.1 µM [inhibitor, partial curve, poor fit]"
12,Cc1ccc(NC(=O)COC(=O)c2csc3c2CCC(C)C3)cc1S(=O)(=O)N1CCCCC1 (stereo unspecified),"inconclusive: 100 µM [inhibitor, single point]"
13,COc1ccc(OCC(=O)NNC(=S)NC(=O)c2ccc(Br)o2)cc1,inactive
14,CC[C@H](C)[C@@H](C(=O)NCCCCCCCCCCC(=O)N1CCNCC1)n1cc(CCCCCN)nn1,"inconclusive: 12.6 µM [inhibitor, partial curve]"
15,CSc1ncc(Cl)c(C(=O)Nc2nnc(SC/C=C/c3ccccc3)s2)n1,"inconclusive: 20 µM [inhibitor, full curve]"
16,NCC12CC3CC(C1)CC(c1ccc(Br)cc1)(C3)C2,"inconclusive: 25.1 µM [inhibitor, single point]"
17,O=C(O)CN1C(=O)/C(=C\c2cccc(OC(=O)c3ccco3)c2)SC1=S,"inconclusive: 8.91 µM [inhibitor, partial curve]"
18,COc1ccc(NC(=O)CNC(=O)Cn2ccc3ccccc3c2=O)cc1OC,"inconclusive: 79.4 µM [inhibitor, single point]"
19,O=[N+]([O-])c1ccccc1/C=N/Nc1nc(N2CCCC2)nc(N2CCCC2)n1,"inconclusive: 35.5 µM [inhibitor, single point]"
20,CCCCOc1cccc(C2c3c(-c4cc(C)ccc4O)n[nH]c3C(=O)N2CCOC)c1 (stereo unspecified),inactive
21,Cc1ccnc(NC(=O)Cn2c(=O)oc3ccccc32)c1,"inconclusive: 100 µM [inhibitor, single point]"
22,O=C(Nc1ccccc1C(=O)N1CCCCC1)c1nsc2ccccc12,inactive

# Arranged by count of non-hydrogen atoms (smallest number first): three of the compounds above.
row,Structure (SMILES),Potency
9,CN(C)CCNc1ccc(CO)c2oc3ccc(O)cc3c(=O)c12,"inconclusive: 79.4 µM [inhibitor, partial curve]"
22,O=C(Nc1ccccc1C(=O)N1CCCCC1)c1nsc2ccccc12,inactive
20,CCCCOc1cccc(C2c3c(-c4cc(C)ccc4O)n[nH]c3C(=O)N2CCOC)c1 (stereo unspecified),inactive

# Later entries.

row,Structure (SMILES),Potency
1,Cc1ccc2sc(-c3ccc(NC(=O)c4cc(-n5cnnc5)ccc4Cl)cc3)nc2c1,"inconclusive: 79.4 µM [inhibitor, partial curve, poor fit]"
2,CCc1ccc(CNC(=O)CN2C(=O)C3CCCCN3c3ccc(C(=O)N4CCCC4)cc32)cc1 (stereo unspecified),inactive
3,COc1ccc(N2CSC3=C(C#N)C(c4ccc(OC)c(OC)c4)CC(=O)N3C2)c(OC)c1 (stereo unspecified),"inconclusive: 14.1 µM [inhibitor, partial curve, poor fit]"
4,COc1ccc2cc(C(N)=O)c(=Nc3ccccc3)oc2c1,"inconclusive: 63.1 µM [inhibitor, single point]"
5,O=C(NCCN1CCOCC1)c1ccc2c(c1)N(Cc1c(F)cccc1Cl)C(=O)c1ccccc1S2,"inconclusive: 14.1 µM [inhibitor, full curve, poor fit]"
6,CN1CCC(=NNC(=O)CSCc2ccccc2)CC1,"inconclusive: 100 µM [inhibitor, single point]"
7,CCOc1ccc(NC(=O)CN(C)C(=O)CN2C(=O)c3ccc([N+](=O)[O-])cc3C2=O)cc1OCC,inactive
8,COc1ccc(/C=C2\SC(=O)NC2=S)cc1OC,inactive
9,CCOc1ccc2nc(NC(=O)c3ccco3)sc2c1,inactive
10,Cn1nnc(NC(=S)NC(=O)/C=C/c2ccco2)n1,"inconclusive: 14.1 µM [inhibitor, partial curve, poor fit]"
11,Cc1ccc(-c2csc(N3CCC(NS(=O)(=O)c4ccc5c(c4)OCCO5)CC3)n2)cc1,"inconclusive: 39.8 µM [inhibitor, single point]"
12,Cc1ccc(-c2nnc(Nc3ccc(OCC(N)=O)cc3)c3ccccc23)cc1S(=O)(=O)NCC1CCCO1 (stereo unspecified),inactive
13,Cc1nc2c(C)cccn2c(=O)c1NC(=O)c1cccs1,"inconclusive: 100 µM [inhibitor, single point]"
14,CCN(CC)CCOC(=O)c1ccc(N/C=C(/C#N)c2nc(-c3cc4ccccc4oc3=O)cs2)cc1,"inconclusive: 11.2 µM [inhibitor, partial curve]"
15,O=C(O)/C(=C\c1ccco1)NC(=O)c1ccco1,"inconclusive: 39.8 µM [inhibitor, single point]"
16,Cc1noc(Cn2c(=O)c3ccccc3n(CC(=O)Nc3cc(Cl)ccc3C)c2=O)n1,inactive
17,Cc1ccsc1C1NC(=O)c2c(sc3c2CCCC3)N1 (stereo unspecified),inactive
18,CC1(C)Cc2c(cnn2-c2ccc(F)cc2)C(NC(=O)CCN2CCCCC2=O)C1 (stereo unspecified),"inconclusive: 89.1 µM [inhibitor, single point]"
19,CCOC(=O)C1CCCN(C(=O)C2CCN(S(=O)(=O)c3cccs3)CC2)C1 (stereo unspecified),"inconclusive: 89.1 µM [inhibitor, single point]"
20,O=C(N/N=C\c1ccoc1)c1ccco1,inactive
21,Cc1cc(C)cc(NC(=O)C(C)N2Cc3ccccc3C2=O)c1 (stereo unspecified),inactive
22,Cc1nn(-c2ccccc2)c(Cl)c1C(=O)OC(C)C(=O)NC(=O)NC1CCCCC1 (stereo unspecified),"inconclusive: 4.47 µM [inhibitor, full curve, poor fit]"

row,Structure (SMILES),Potency
1,Cn1cc([N+](=O)[O-])c(C(=O)n2cccn2)n1,inactive
2,CCOc1ccccc1NC(=O)CN1C(=O)CC(c2ccc(C)c(C)c2)=Nc2ccccc21,"inconclusive: 35.5 µM [inhibitor, partial curve, poor fit]"
3,O=C(O)C(S)C(S)C(=O)O (stereo unspecified),"inconclusive: 11.2 µM [inhibitor, full curve, poor fit]"
4,CC1(OC(=O)CCc2ccccc2)C(=O)C=C2C=C3CCCN3C=C2C1=O (stereo unspecified),active: 12.6 µM
5,Cc1ccc(N2CCN(c3nc4ccc(C(=O)c5ccccc5)cc4n4cnnc34)CC2)c(C)c1,"inconclusive: 89.1 µM [inhibitor, partial curve, poor fit]"
6,Cc1cc2cc(CN3C(=O)c4ccccc4C3=O)ccc2n1C,"inconclusive: 39.8 µM [inhibitor, single point]"
7,COc1ccc(C)cc1NC(=O)N(C(C)C)C1CCN(C(C)=O)CC1,inactive
8,CCCCN(C(=O)NC(=O)C1=C(N2CCOCC2)/C(=C/c2ccccc2)CC1)S(C)(=O)=O,"inconclusive: 15.8 µM [inhibitor, partial curve, poor fit]"
9,COCCN1Cc2cccc(C(=O)NC(C)CCc3ccco3)c2C1=O (stereo unspecified),"inconclusive: 89.1 µM [inhibitor, partial curve, poor fit]"
10,COc1cccc(=O)c2c(C)n(CC(=O)c3ccccc3)c(C)c12,"inconclusive: 56.2 µM [inhibitor, partial curve]"
11,COC(=O)Cc1ccc(NC(=S)Nc2ccccn2)cc1,inactive
12,CCC1=NN2C(=N)/C(=C\c3cccn3-c3ccc(Cl)cc3)C(=O)N=C2S1,"inconclusive: 22.4 µM [inhibitor, single point]"
13,CC(=O)Nc1ccc(NC(=O)c2ccc3c(c2)CCN3S(=O)(=O)c2ccc(C)cc2)cc1,"inconclusive: 89.1 µM [inhibitor, single point]"
14,COCCN1C(=O)C(O)=C(C(C)=O)C1c1ccc(OC)c(OC)c1 (stereo unspecified),"inconclusive: 15.8 µM [inhibitor, partial curve, poor fit]"
15,CCOC(=O)c1cnc2ccc(OCC)cc2c1NCc1cccnc1,"inconclusive: 89.1 µM [inhibitor, single point]"
16,O=C(CCn1c(SCC(=O)NCc2ccco2)nc2ccccc2c1=O)NCCc1ccccc1,"inconclusive: 89.1 µM [inhibitor, single point]"
17,COc1cc(Cl)c(C)cc1NC(=O)CSc1cc(Cl)ccc1Cl,"inconclusive: 15.8 µM [inhibitor, full curve, poor fit]"
18,CCc1nc(NCc2ccco2)c2oc3ccccc3c2n1,"inconclusive: 11.2 µM [inhibitor, partial curve, poor fit]"
19,COCCCNC(=O)NC(=O)c1ccccc1,inactive
20,OCCn1c(CSc2nnc(-c3ccco3)n2-c2ccccc2)nc2ccc(Cl)cc21,"inconclusive: 31.6 µM [inhibitor, single point]"
21,c1ccc(Oc2nc(N3CCOCC3)nc(N3CCOCC3)n2)cc1,inactive
22,O=C(Oc1ccc(Cl)c(Cl)c1)C1=CC=CN2CCS(=O)(=O)N=C12,"inconclusive: 89.1 µM [inhibitor, single point]"
